Experiment: general procedure: Fmoc solid-phase peptide synthesis; 2-Cl-Trt resin preloaded with Fmoc-Proline-OH

Row | Substance | step yield (purification step, on 257 mg injected crude) | step yield (late stage modification step)
1 | RGD-PEGn-FCitFPro-TFP | 70% | –
2 | (diboc)RGD(OtBu)-APBA-PEGn-FCitFPro-TFP | – | 92%
